# Results of single-concentration screens

Amino acid sequences for entries named in this document (tags omitted). Residues count along the entry.
UniProt Q4DA54, 1-478: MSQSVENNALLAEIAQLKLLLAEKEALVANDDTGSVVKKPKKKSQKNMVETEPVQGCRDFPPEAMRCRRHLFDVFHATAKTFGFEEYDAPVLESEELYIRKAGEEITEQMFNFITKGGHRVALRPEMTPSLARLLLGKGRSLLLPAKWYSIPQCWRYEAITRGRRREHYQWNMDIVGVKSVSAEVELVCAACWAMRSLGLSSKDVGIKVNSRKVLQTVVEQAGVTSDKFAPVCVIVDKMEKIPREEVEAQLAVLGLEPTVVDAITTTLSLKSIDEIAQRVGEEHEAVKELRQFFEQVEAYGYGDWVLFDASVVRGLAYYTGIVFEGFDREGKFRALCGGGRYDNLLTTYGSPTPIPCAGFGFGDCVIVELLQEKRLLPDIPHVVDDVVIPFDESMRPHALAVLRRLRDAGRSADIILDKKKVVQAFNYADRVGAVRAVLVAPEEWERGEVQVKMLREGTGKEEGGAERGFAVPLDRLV

Source: ChEMBL document CHEMBL3988442, “University of Dundee, Small-Polar-MMV Screening Library” (2021).

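Histidine-tRNA ligase, Trypanosoma cruzi CL Brener (UniProt Q4DA54). Enzyme assay of histidyl-tRNA synthetase; the read-out is not stated. Tested at 30 µM. The record gives no direction; compounds that gave an IC50 in retests scored well above the rest, so higher reads as stronger inhibition. About 69,000 compounds were tested under these conditions; 0.045% (about 31) showed 50% or more at least once.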

Results are given as percent effect.
The record does not define 0% and 100%; most values in the screen are far below 50% and negative numbers occur (in some assays of this library far below -100).
Compounds were drawn at random from those tested, without regard to their results.

structure,effect
Cn1cc(CN(Cc2ccccc2)CC(O)c2cccs2)cn1 (configuration not stated),0
O=S(=O)(C1CC1)N1CCC(Cn2cccn2)CC1,-4.444
c1cnc(NC[C@H]2OC[C@@H]3CCN(Cc4cccnc4)C[C@@H]32)nc1,3.81
CCOc1ccccc1C(=O)NCCC(O)c1ccoc1 (configuration not stated),0
COC(=O)[C@@H](NC(=O)c1coc(COc2cccc(F)c2F)n1)C(C)C,4.04
O[C@]12CCNC[C@H]1CN(c1nccc3ccccc13)CC2,3.077
Cc1cccc(C)c1OCCNC(=O)NC(C)c1nncn1C (configuration not stated),-10.19
COc1cc(CNC(C)Cn2cccn2)cc(Cl)c1OC (configuration not stated),6.897
OCCN(Cc1cccnc1)c1ccc(Cl)cn1,1.01
CN1CCc2cc(C(CNS(=O)(=O)c3cccs3)N3CCCC3)ccc21 (configuration not stated),5.435
COCC(=O)N1CCCN(Cc2cc(O)c3ccccc3n2)CC1,6.533
CC(CN(C)C)Nc1nc(O)cc(Cc2ccccc2F)n1 (configuration not stated),4.857
O=C1[C@H]2CN(CC3CCOCC3)C[C@H]2CN1c1ccsc1,9.195
Cc1ccc(N2C[C@H]3OCC[C@H]3[C@H](C(=O)NC3CCCC3)C2)nn1,1.97
NC(=O)c1ccc(OCC(=O)N2CCCC2c2ccc[nH]2)cc1 (configuration not stated),9.135
CCc1ccccc1OCCN(C)C(=O)CCN1CCCCO1,-9.091
Cc1nc(C)c(C(=O)Nc2cnn(CC(=O)NC3CCCC3)c2)s1,4.396
COc1ccc(CNCCc2ccn(-c3ccccc3)n2)cc1O,6.897
Cc1cc(C2CCC2)nc(N2CCC3(CCCN(C)C3=O)C2)n1 (configuration not stated),4.327
CC(Cn1cccn1)NCCCc1nc(-c2cccs2)no1 (configuration not stated),5.202
Cc1cc(C)c(C(=O)N[C@H](C(N)=O)c2ccccc2)c(=O)[nH]1,3.867
COCCN1C(=O)CC[C@@H]2[C@@H]1CCN2S(=O)(=O)C1CC1,6.63
Oc1ncccc1-c1nc(-c2cccc(CN3CCOCC3)c2)no1,7.65
O=C(Cn1cccnc1=O)NCCc1ccc2c(c1)OCCO2,-0.3774
CN(C)Cc1cnc(C2CCN(C(=O)c3cc(F)cc(F)c3)C2)[nH]1 (configuration not stated),8.333
Cc1[nH]c(=O)sc1S(=O)(=O)N1CCCC1C(=O)NC1CC1 (configuration not stated),-24.24
CCCC(=O)Nc1cnn(CC(=O)Nc2ccc(SC)cc2)c1,-0.8929
CC(C)OCc1ncn2c1CN(CCO)CCC2,6.897
CCCc1n[nH]c(C2CN(C(=O)CCCn3cccn3)CCO2)n1 (configuration not stated),6.504
O=C1CC(NCc2cnc(N3CCCC3)nc2)CN1c1ccccc1 (configuration not stated),5.155
CC(C)CC(CO)NC(=O)NCc1csc(N(C)C)n1 (configuration not stated),11.34
CCCc1cc(C(=O)N2C[C@@H](C)[C@](O)(C3CCC3)C2)[nH]n1,4.891
O=C(Nc1cnn(CC(=O)N2CCCCO2)c1)c1ccsc1,6.077
CCS(=O)(=O)N1CC[C@H]2OCC[C@@]2(C(=O)NC)C1,2.041
CNS(=O)(=O)CCNc1cc(C)nc2cc(C)nn12,4.082
COc1ccccc1CC(=O)N1CC[C@H](O)[C@]2(CCCO2)C1,12.09
Cc1noc(C2CCN(C(=O)c3cccs3)CC2)n1,0.8772
Cc1nc(C)n(CC2CN(c3ncccc3C#N)CCO2)n1 (configuration not stated),4.046
COc1cccc2c1OCC(CNC(=O)Cc1csc(C(C)=O)c1)C2 (configuration not stated),-2.174
NC(=O)c1cc2c(nc1-c1ccoc1)CCC2,2.899
Cc1cc(F)cc(S(=O)(=O)NCCCN2CCC(O)CC2)c1,-4.184
CN(CCc1cnn(C)c1)C(=O)CN1C(=O)OC[C@@H]1c1ccccc1,10.24
CN1CC=C(c2noc(CCC(=O)N3CCc4ccccc43)n2)CC1,8.537
CN(C)Cc1ccnc(NS(=O)(=O)Cc2cccc(F)c2)c1,3.627
CCc1nnc(CN(C)c2nc(C(C)C)nc3c2cnn3C)o1,1.626
CN(CCCN1CCOCC1)[C@@H]1c2ccccc2C2(CCNCC2)[C@H]1O,0.8333
Cc1nc(CN2CCOCC3(CCN(c4ncccn4)C3)C2)cs1 (configuration not stated),0.5348
CC(=O)N1CCN(C(=O)c2snnc2C)[C@H]2CS(=O)(=O)C[C@H]21,6.818
Cc1cc(C)n(-c2cncc(NCCNC(=O)c3cccnc3)n2)n1,2.41
O=C(NC1CCCCC1)c1ccc(Oc2ccc3nncn3n2)cc1,-0.9901
N#Cc1cccnc1Oc1cc(F)c(CN2CCCC2)c(Cl)c1,14
CN1CC=C(c2noc(CCC(=O)N3CCc4ccccc4C3)n2)CC1,1.22
O=S(=O)(N1CCOCC1)N1CCc2sccc2C1,14.45
c1cc(CN2C[C@@H]3OCCN(CC4CCCO4)[C@@H]3C2)ccn1 (some centres not stated),14.29
COc1ccc(OCC(=O)NS(=O)(=O)c2ccc(Cl)s2)cc1,-3.03
CCc1cc(CNC(=O)N(C2CC2)C(C)c2ccco2)[nH]n1 (configuration not stated),5.844
O=C(CC1CCc2ccccc21)NCCSc1ccccn1 (configuration not stated),-0.5525
CCc1cc(NCCCOC2CCCC2)ncn1,-4.721
CC(O)CNCc1ccccc1C(F)(F)F (configuration not stated),3.704
CCc1nc(C2CCCN2CCCSC)no1 (configuration not stated),4.734
CCO[C@H]1CO[C@@]2(CCCN(C(=O)c3ccc(OC)c(F)c3)C2)C1,2.151
CCCN1CCc2nc(SCc3ccccc3)[nH]c(=O)c2C1,14.43
O=C(COc1ccc(-n2cccn2)nn1)NC1CCCCC1,4.762
COc1ccc(O[C@H]2COCCN(C(=O)c3ccno3)C2)cc1,3.261
CCOCC1CN(C(=O)c2ccnnc2)Cc2cnn(CC)c21 (configuration not stated),4.202
COCCN1CCC(CNC(=O)C2(c3ccccc3)CCC2)C1 (configuration not stated),9.249
CCN1CCc2onc(CNc3ncccn3)c2C1,2.97
Cc1ccccc1CS(=O)(=O)NCCCN1CCCC1,11.96
Cc1cccc(Cc2nc3c([nH]2)CCCNC3=O)c1,4.444
Cc1cc(C[S+]([O-])CC(=O)NCc2cccc(Cl)c2)no1 (configuration not stated),5.172
CCCNC(=O)c1sc(Nc2ccc(Cl)cn2)nc1C,-2.732
O=C(CSc1ccccc1)Nc1cnn(CC(=O)N2CCCO2)c1,2.762
O=C1CCCN1CC1CCCCN1C(=O)Nc1cccnc1 (configuration not stated),12.61
Cc1nc(-c2ccsc2)ccc1C(=O)NCCN1CCOCC1,1.141
CCc1nnc(C2Cc3ccccc3CN2Cc2ncc(Cl)n2C)o1 (configuration not stated),7.182
CSc1nccc(N2CCC(NCc3ccc4nsnc4c3)CC2)n1,6.25
Cc1noc([C@@]23CCO[C@@H]2CCN(Cc2scnc2C)C3)n1,5.528
COc1cccc(-n2cc(-c3ccnc(NC(CO)C(C)C)n3)cn2)c1 (configuration not stated),9.091
Cn1cc(CN(Cc2ccccn2)Cc2ccccc2Cl)cn1,8.046
O=C(COc1cccc2c1CCC2=O)NCCOc1ccccc1,4.348
CCOc1ccccc1OCCN(C)Cc1nccn1C,-1.266
Cc1nc(CO[C@H]2CN(C(=O)c3cnoc3C)[C@@H]3COC[C@H]23)cs1,0
Cc1ccc(-c2cccc(N3CCC(NC4CCOCC4)CC3)c2)cc1,7

8 of the entries, repeated:

| structure | effect |
|---|---|
| `CN(CCc1cnn(C)c1)C(=O)CN1C(=O)OC[C@@H]1c1ccccc1` | 10.24 |
| `Cc1nc(CO[C@H]2CN(C(=O)c3cnoc3C)[C@@H]3COC[C@H]23)cs1` | 0 |
| `CCN1CCc2onc(CNc3ncccn3)c2C1` | 2.97 |
| `CCCc1n[nH]c(C2CN(C(=O)CCCn3cccn3)CCO2)n1` (configuration not stated) | 6.504 |
| `O[C@]12CCNC[C@H]1CN(c1nccc3ccccc13)CC2` | 3.077 |
| `Cc1nc(CN2CCOCC3(CCN(c4ncccn4)C3)C2)cs1` (configuration not stated) | 0.5348 |
| `O=C(NC1CCCCC1)c1ccc(Oc2ccc3nncn3n2)cc1` | -0.9901 |
| `CCOCC1CN(C(=O)c2ccnnc2)Cc2cnn(CC)c21` (configuration not stated) | 4.202 |